Experimental data taken from PubChem BioAssay AID1347075 (National Center for Advancing Translational Sciences (NCATS), 2019).
Out of some 400,000 compounds screened, about 5,500 (1.4%) were called active. This list was built around the results that the source calls inconclusive (neither active nor inactive); the mix of calls is not that of the screen. Calls come from the whole dose curve; as a rule, active = well fitted cell-killing curve with a large enough effect; inconclusive = small, poorly fitted or top-dose-only effect, or effect the other way; inactive = flat fitted curve, though single readings scatter. Potencies beside an inconclusive call are fits to weak or partial responses and may not hold up.

Test: qHTS assay for MDR1-selective chemotherapeutics: Primary screen using the parental adenocarcinoma cell KB-3-1; note: nearly all actives have a fitted effect of over 60% in size
Settings: KB-3-1 viability, CellTiter-Glo ATP luminescence, 72 h; activity change, negative = cytotoxic: at 46.1 µM (top of the series)
Summary of the method: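 Cytotoxicity measured as CellTiter-Glo luminescence after 72 h at 37 C. Compound titrations were pinned onto drug-naive KB-3-1 parental adenocarcinoma cells grown in DMEM with 10% FBS, and normalized data fitted to concentration-response curves.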
% is set by controls: 0 for no effect and ±100 for the full control effect; potency is the fitted concentration of half-maximal effect.

| Structure (SMILES) | Potency | activity change, negative = cytotoxic |
| --- | --- | --- |
| COC(=O)C1=C(Nc2ccc(OC)cc2)C=C(C)C(C(=O)OC)C1c1ccc(C)cc1 (centres undefined) | inconclusive: 29.1 µM [cytotoxic, single point] |  |
| CCN1CCN(C2=C(NS(=O)(=O)c3ccc(Br)cc3)C(=O)c3ccccc3C2=O)CC1 | inconclusive: 29.1 µM [cytotoxic, single point] |  |
| Cc1c(C(=O)N2CCCCC2)c(S(=O)(=O)NCCc2ccc(S(N)(=O)=O)cc2)c(C)n1C | inconclusive: 14.6 µM [rising, partial curve, poor fit] |  |
| CCOc1ccccc1CNC(=O)c1nc(-c2ccc(Cl)cc2)n2c1CCCCC2 | inactive |  |
| CN(CCc1ccccc1)C(C(=O)Nc1ccc2c(c1)OCCO2)c1ccnc2ccccc12 (centres undefined) | inconclusive: 29.1 µM [cytotoxic, single point] |  |
| CSc1nc2ccc(S(=O)(=O)N3CCCCC3)cc2s1 | inconclusive: 29.1 µM [cytotoxic, single point] |  |
| O=C1CC2(CCN(C(=O)c3cccc(F)c3)CC2)Oc2ccccc21 | inactive |  |
| CC1=C(C(N)=O)C(c2cccnc2)n2nc(-c3cccc(Cl)c3)nc2N1 (centres undefined) | inconclusive: 32.6 µM [rising, single point] |  |
| CCC(=O)C1=C(O)C(c2cccc(Oc3ccccc3)c2)CCC1=O (centres undefined) | inconclusive: 18.4 µM [cytotoxic, single point] |  |
| Cc1ccc(C(=O)CCS(=O)(=O)c2ccc(F)cc2)cc1 | inconclusive: 29.1 µM [cytotoxic, single point] |  |
| Cc1cc(CNC(=O)c2ccc3nc(Cc4ccccc4F)oc3c2)nn1C | inconclusive: 4.11 µM [rising, partial curve] |  |
| Cc1cccc(Nc2nc(-c3ccc(O)cc3O)cs2)n1 | inconclusive: 0.0065 µM [cytotoxic, full curve, poor fit] |  |
| CS(=O)(=O)N(Cc1ccc(C(=O)NC2CCCC2)cc1)c1ccccc1 |  | inconclusive: 0.153% |
| CC(C)Oc1ccc(C(CCNCc2ccc(O)cc2)c2ccccc2)cc1 (centres undefined) | inconclusive: 20.6 µM [cytotoxic, single point] |  |
| Cc1cc(C)cc(Cn2ncc(Cl)c(Cl)c2=O)c1 | inconclusive: 29.1 µM [cytotoxic, single point] |  |
| CCCC(=O)NC(NC(=S)Nc1ccc(N=Nc2ccccc2)cc1)C(Cl)(Cl)Cl (centres undefined) | active: 14.6 µM |  |
| CC(C)CNS(=O)(=O)c1cc(C(=O)O)c(Cl)cc1Cl |  | inconclusive: 3.04% |
| CCOC(=O)c1c(-c2ccccc2)csc1NC(=O)CSc1nnc(C)s1 | inconclusive: 29.1 µM [cytotoxic, partial curve, poor fit] |  |
| O=C(CCN1C(=O)/C(=C\c2ccccc2F)SC1=S)N1CCCCC1 | active: 10.3 µM |  |
| CCOCCCn1c(C)nc2c(c1=O)c1nc3ccccc3nc1n2CCC1=CCCCC1 | inconclusive: 29.1 µM [cytotoxic, single point] |  |
| CC(Sc1nc2ccccc2s1)C(=O)NC1CCCc2ccccc21 (centres undefined) | inactive |  |
| COc1ccc(-c2cc(C(=O)Nc3c(C)nn(Cc4ccccc4Cl)c3C)no2)cc1 | inactive |  |
| Cc1cc(C(=O)CSc2nnc(N)s2)c(C)n1CCc1ccc(Cl)cc1 | inconclusive: 16.4 µM [cytotoxic, single point] |  |

| Structure (SMILES) | Potency | activity change, negative = cytotoxic |
| --- | --- | --- |
| Cc1ccc(-c2cc(C(=O)OCC(=O)Nc3ncc(C(F)(F)F)cc3Cl)c3ccccc3n2)cc1 | inconclusive: 29.1 µM [cytotoxic, single point] |  |
| COCCNC(=O)c1cc2c(=O)n(C)c3ccccc3c2n1C | inactive |  |
| Cn1cc(CNCCN2CCCCC2=O)c(-c2cccc(Cl)c2)n1 | inconclusive: 29.1 µM [rising, single point] |  |
| Cc1nn(-c2ccccc2)c(OC(=O)c2cccc(Br)c2)c1S(=O)(=O)c1ccccc1 | inactive |  |
| COC(=O)Nc1nc(-c2ccccc2)c(C(=O)c2ccccc2)s1 | active: 0.164 µM |  |
| O=S(=O)(c1ccc(SCc2ccc(Cl)cc2)nc1)N1CCCC1 | inactive |  |
| O=c1[nH]c(/C=C/c2ccccc2Cl)nc2ccccc12 | inconclusive: 29.1 µM [cytotoxic, single point] |  |
| COc1ccc(-c2ccc(F)cc2)cc1[C@H]1[C@H]2C=CC[C@@H](C)[C@@H]2C(=O)N1Cc1ccccc1 | inconclusive: 20.6 µM [cytotoxic, single point] |  |
| CCc1cc(-c2n[nH]c(C)c2-c2nc3ccccc3n2C)c(O)cc1O | inconclusive: 29.1 µM [cytotoxic, single point] |  |
| CCc1cccc(CC)c1NC(=O)c1c(C)oc2ccc(O)c(CN3CCN(C)CC3)c12 | inactive |  |
| Cc1ccccc1CN1CCN(CC(=O)NCCCN2CCN(c3ccc(F)cc3)CC2)C1=O | inconclusive: 29.1 µM [cytotoxic, single point] |  |
| Cc1c(C(=O)N2CCCc3ccccc32)oc2ccc(S(=O)(=O)N3CCOCC3)cc12 | inconclusive: 29.1 µM [cytotoxic, single point] |  |
| CC1=C(C(=O)Nc2ccccn2)C(c2ccc(Br)cc2)NC(=S)N1 (centres undefined) | inconclusive: 29.1 µM [cytotoxic, single point] |  |
| COCC(C)NC(=O)NC1(C(F)(F)F)Oc2ccc(Cl)cc2O1 (centres undefined) | inconclusive: 25.9 µM [cytotoxic, single point] |  |
| CC(C)(C)NC(=O)C(c1c[nH]c2ccccc12)N(C(=O)Cn1nnc(-c2ccc(F)cc2)n1)c1cccc(O)c1 (centres undefined) | inconclusive: 29.1 µM [cytotoxic, single point] |  |
| C=C(C)COc1ccc(-c2nc(N)ncc2-c2ccc(Cl)cc2)c(O)c1 | inconclusive: 16.4 µM [cytotoxic, single point] |  |
| Cc1ccc(S(=O)(=O)NC(=O)NCc2ccco2)cc1 | inconclusive: 20.6 µM [rising, partial curve] |  |
| Cc1cccc(Nc2ncnc(N)n2)c1 | inactive |  |
| Cn1c(=O)c2c(nc(NCCCCO)n2Cc2ccccc2Cl)n(C)c1=O | inactive |  |
| Cc1nc([N+](=O)[O-])cn1-c1nc2ccccn2c1[N+](=O)[O-] | inactive |  |
| O=[N+]([O-])c1ccc(C2=CSC3=NCCN23)cc1 | inactive |  |
| O=C(Nc1ncc(Cc2cccc(Cl)c2)s1)c1cccs1 | inconclusive: 29.1 µM [cytotoxic, single point] |  |
| CN(C)CCn1cnc2c(c1=N)C(c1ccccc1)c1ccc3ccccc3c1O2 (centres undefined) | inconclusive: 18.4 µM [cytotoxic, single point] |  |

| Structure (SMILES) | Potency | activity change, negative = cytotoxic |
| --- | --- | --- |
| COc1ccc(OCC(=O)Nc2ccccc2-c2ccccc2)cc1 | inconclusive: 23.1 µM [cytotoxic, single point] |  |
| O=C(CN1C(=O)N/C(=C\c2ccccc2OCc2ccc(C(=O)O)cc2)C1=O)Nc1ccc(F)cc1 | inactive |  |
| Cc1cccc(CNc2ncnc3ccc(-c4cccnc4)cc23)c1 | inactive |  |
| Cc1cc(NC(=S)NC(=O)c2ccccc2)ccc1-c1cc2ccccc2oc1=O | inconclusive: 2.06 µM [cytotoxic, full curve] |  |
| CCc1nc(Nc2ccc(F)c(Cl)c2)c2c3c(sc2n1)CCCC3 | inactive |  |
| N#C/C(=C(/O)COc1ccccc1)c1nc2ccccc2s1 | inconclusive: 29.1 µM [cytotoxic, single point] |  |
| Cc1ccc(NC(=O)COC(=O)CNC(=O)c2ccc(Br)cc2)c(C)c1 | inactive |  |
| COc1ccc(-c2nc(CN3CCN(c4cc(C)nc(C)c4)CC3)c(C)o2)c2ccccc12 | inconclusive: 25.9 µM [cytotoxic, single point] |  |
| Cc1ccc(S(=O)(=O)N2CCC(C(=O)Nc3ccc(C(C)C)cc3)CC2)cc1 | inconclusive: 29.1 µM [cytotoxic, single point] |  |
| CN(C)c1ccc(C=Cc2nccc3ccccc23)cc1 | active: 9.2 µM |  |
| CC1(c2nnc(-c3cccc(Cl)c3)o2)CC(c2cccc(F)c2)=NO1 (centres undefined) | inconclusive: 13 µM [rising, partial curve, poor fit] |  |
| COc1ccc(CNC(=O)C[C@H]2C[C@H](C(=O)N(C(C)C)C(C)C)[C@@]3(C)c4[nH]c5cc(-c6ccco6)ccc5c4CCN3C2=O)cc1OC | inconclusive: 23.1 µM [cytotoxic, single point] |  |
| Cc1ccc(Cl)cc1N1C(=O)CC(Sc2ccccc2N)C1=O (centres undefined) |  | inconclusive: -7.03% |
| COc1ccc(COC[C@H](CC(C)C)N2CCN(C(=O)c3cccc(C(F)(F)F)c3)CCC2=O)cc1 | inconclusive: 23.1 µM [cytotoxic, single point] |  |
| O=C(Oc1cccc2cccnc12)c1ccco1 | inconclusive: 18.4 µM [cytotoxic, single point] |  |
| COc1cc(NC(=O)c2[nH]cnc2C(N)=O)cc(C(=O)Nc2cccc(C(F)(F)F)c2)c1 | inconclusive: 29.1 µM [cytotoxic, single point] |  |
| Cc1ccc2oc(-c3ccc(Cl)cc3)c(O)c(=O)c2c1 | inconclusive: 18.4 µM [cytotoxic, single point] |  |
| O=C(CC1C(=O)NCCN1Cc1cccc(C(F)(F)F)c1)NCCCOc1cccnc1 (centres undefined) | inactive |  |
| O=C(/C=C/c1ccccc1)/C=C/c1ccccc1 | inconclusive: 23.1 µM [cytotoxic, single point] |  |
| Cc1cc(C)n(-c2ccc(C(=O)Nc3ccc(S(=O)(=O)NCc4ccco4)cc3)cc2)n1 | inconclusive: 23.1 µM [cytotoxic, partial curve, poor fit] |  |
| S=C(Nc1cccc(Cl)c1)Nc1cccc2cnccc12 | active: 18.4 µM |  |
| Cc1onc(-c2ccccc2)c1C(=O)Nc1ncc([N+](=O)[O-])s1 | inconclusive: 23.1 µM [cytotoxic, single point] |  |
| COc1cccc(/C=N/Nc2snc(SC)c2C#N)c1 | inconclusive: 32.6 µM [cytotoxic, single point] |  |

Some of the entries so far, comma-delimited:
Structure (SMILES),Potency,"activity change, negative = cytotoxic"
Cc1ccc(C(=O)CCS(=O)(=O)c2ccc(F)cc2)cc1,"inconclusive: 29.1 µM [cytotoxic, single point]",
Cc1cc(CNC(=O)c2ccc3nc(Cc4ccccc4F)oc3c2)nn1C,"inconclusive: 4.11 µM [rising, partial curve]",
Cc1cccc(Nc2nc(-c3ccc(O)cc3O)cs2)n1,"inconclusive: 0.0065 µM [cytotoxic, full curve, poor fit]",
CS(=O)(=O)N(Cc1ccc(C(=O)NC2CCCC2)cc1)c1ccccc1,,inconclusive: 0.153%
